Results are given in words; binding and its absence hold for the method and conditions named. Some binding calls cover weakened binding; strength is not graded here.
Legend:
CT103A scFv [1] = experiment: ELISA, purified recombinant antibody on coated CT103A scFv at 1 ug/ml
[2] = target: BCMA-CAR (CAR with the CT103A scFv) on cells; experiment: flow cytometry on BCMA-CAR-Jurkat cells
CT103A scFv [3] = experiment: competition ELISA, antibody pre-incubated with biotin-CT103A scFv; competitor: coated BCMA
CT103A scFv [4] = experiment: ELISA, LEM supernatant on coated CT103A scFv at 1 ug/ml

Measured: binding

B1: 6G8 (antibody, V domains shown)
VH: QSLEESGGRLVKPDETLTLTCTVSGFTISSYGMSWVRQAPGNGLEWIGAIDSSGSAHYARWAKSRSTITRNTNENTVTLKMTSLTAADTATYFCARWDVDYWSYFNIWGPGTLVTVSS
VL: DVVMTQTPASVSDPVGGTVTIKCQASENIYNGLAWYQQKPGQPPKLLIYGTSTLASGVPSRFSGSGSGTQFTLTISDLECDDAATYYCQCTYYEGGYFFGFGGGTEVVVKG
binds: CT103A scFv [1] | [2] | CT103A scFv [3] | CT103A scFv [4]

— patent CN114874330A
